Test results as given in patent US20140357641A1, “IP receptor agonist heterocyclic compounds” (NOVARTIS AG, priority 2012, published 2014).

Sequences of proteins named here, by UniProt entry; tags and fusion partners are left off. A change or cut given only in a name is not applied to a line headed by its entry.
UniProt P43119: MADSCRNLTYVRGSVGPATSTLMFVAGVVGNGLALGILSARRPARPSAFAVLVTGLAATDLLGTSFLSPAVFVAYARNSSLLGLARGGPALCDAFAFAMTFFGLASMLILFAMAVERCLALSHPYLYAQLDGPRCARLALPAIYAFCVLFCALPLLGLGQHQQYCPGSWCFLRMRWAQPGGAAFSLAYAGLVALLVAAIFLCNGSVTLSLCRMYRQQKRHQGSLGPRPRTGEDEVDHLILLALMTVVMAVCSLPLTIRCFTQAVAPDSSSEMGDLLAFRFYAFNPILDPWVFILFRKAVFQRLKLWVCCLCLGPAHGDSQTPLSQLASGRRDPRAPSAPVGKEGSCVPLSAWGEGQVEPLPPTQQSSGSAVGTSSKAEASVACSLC

Target: T1, IP receptor (Homo sapiens, UniProt P43119)
T1 construct: expressed in transfected cells
Assay: cAMP accumulation in CHO cells stably expressing the IP receptor (CHO-IP), Perkin Elmer AlphaScreen assay
Type: cell-based
Conditions: agonist activity, 1 hour at room temperature
Description: Activity of compounds at the IP receptor (IP receptor) is assessed by measuring cAMP accumulation in CHO cells stably expressing the IP receptor (CHO-IP) using the Perkin Elmer AlphaScreen assay. This technology measures the endogenous production of cAMP, in a non-radioactive luminescence proximity homogenous assay. A biological reaction occurs between streptavidin coated donor beads, biotinylated cAMP and anti-cAMP acceptor beads, bringing the donor and acceptor beads close enough together so that upon excitation a fluorescence signal is produced. On production of endogenous cAMP, competition between the biotinylated cAMP and cellular-derived cAMP causes a reduction in the fluorescent signal. The reduction in signal is proportional to the amount of cAMP being produced, thus it is possible to quantify the amount of cAMP being produced on stimulation with agonist.
Test and reference compounds are prepared at 100× [final] in 100% DMSO, and diluted 1:3 using a Biomek Fx (Beckman Coulter). This is followed by an intermediate dilution to give 5× [final] in assay buffer (HBSS containing 5 mM HEPES, 0.1% (w/v) BSA). […] The assay plate is then incubated at room temperature in the dark, for 60 minutes with gentle shaking, and read on the Envision plate reader (Perkin Elmer). […]

How did the EC50 turn out when `Cc1ccc(-c2nc3c(nc2-c2ccc(C)cc2)N(CCCCCC2SC(=O)NC2=O)CCC3)cc1` (stereo not shown) [Example 2, 5-(5-(2,3-Di-p-tolyl-7,8-dihydropyrido[2,3-b]pyrazin-5(6H)-yl)pentyl)thiazolidine-2,4-dione] was run?
Its EC50 is 3.62 nM.
